This assay concerns the target Pyruvate kinase M2 (PKM2), endogenous in primary astrocytes (mouse (endogenous in primary astrocytes)) (UniProt P52480). Put plainly: affinity purification with mass spectrometry; lysates of unstimulated and MOGsup-stimulated (24 hr) primary astrocytes immunoprecipitated with antibody against PKM2; Q-Exactive Orbitrap, MaxQuant, Uniprot mouse database.

Protein sequences, listed by entry. Tags and fused reporters are not part of them.
UniProt P52480: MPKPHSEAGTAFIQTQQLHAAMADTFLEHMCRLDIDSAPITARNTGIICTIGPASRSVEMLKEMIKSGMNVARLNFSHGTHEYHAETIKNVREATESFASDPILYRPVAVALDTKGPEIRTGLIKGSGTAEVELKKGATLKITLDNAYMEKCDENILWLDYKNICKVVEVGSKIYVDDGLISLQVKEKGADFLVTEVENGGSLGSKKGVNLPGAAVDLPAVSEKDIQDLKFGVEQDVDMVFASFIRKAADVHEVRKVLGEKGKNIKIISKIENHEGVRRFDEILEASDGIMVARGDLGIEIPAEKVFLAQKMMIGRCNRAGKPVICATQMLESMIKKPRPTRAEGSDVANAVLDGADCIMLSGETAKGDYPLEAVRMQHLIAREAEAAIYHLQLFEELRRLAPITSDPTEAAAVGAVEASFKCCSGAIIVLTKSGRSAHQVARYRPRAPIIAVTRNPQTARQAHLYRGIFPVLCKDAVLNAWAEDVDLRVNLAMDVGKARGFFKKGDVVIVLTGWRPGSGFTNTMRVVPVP
UniProt P00342: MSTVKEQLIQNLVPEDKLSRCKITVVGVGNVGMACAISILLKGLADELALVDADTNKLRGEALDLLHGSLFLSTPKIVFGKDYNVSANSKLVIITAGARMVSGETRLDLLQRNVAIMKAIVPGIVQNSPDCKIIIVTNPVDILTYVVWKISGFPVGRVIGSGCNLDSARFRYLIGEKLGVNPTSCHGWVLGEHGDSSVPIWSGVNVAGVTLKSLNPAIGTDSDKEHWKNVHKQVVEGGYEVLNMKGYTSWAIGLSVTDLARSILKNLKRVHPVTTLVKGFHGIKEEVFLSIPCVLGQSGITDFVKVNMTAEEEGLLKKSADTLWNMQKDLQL

These are yes or no findings as the source states them, for the method shown. In cells and extracts the contact can be indirect. These calls come from enrichment with a bait or labelling near it, and not all partners need be listed.

From publication PMC11392529 come the findings set out here.

Regarding “LDHC, endogenous in primary astrocytes (from UniProt P00342 1-332)”, the binding entry is “binds”.

B1: MDH2, endogenous in primary astrocytes (protein, UniProt P08249 25-338)
chain: AKVAVLGASGGIGQPLSLLLKNSPLVSRLTLYDIAHTPGVAADLSHIETRANVKGYLGPEQLPDCLKGCDVVVIPAGVPRKPGMTRDDLFNTNATIVATLTAACAQHCPEAMVCIIANPVNSTIPITAEVFKKHGVYNPNKIFGVTTLDIVRANTFVAELKGLDPARVNVPVIGGHAGKTIIPLISQCTPKVDFPQDQLATLTGRIQEAGTEVVKAKAGAGSATLSMAYAGARFVFSLVDAMNGKEGVVECSFVQSKETECTYFSTPLLLGKKGLEKNLGIGKITPFEEKMIAEAIPELKASIKKGEDFVKNMK
Consider B1, for which the binding entry is “binds”.
